The target of this series is T1, OsMYB8 (UniProt A0A0P0V5Q1).
T1 sequence (looked up, limits assumed): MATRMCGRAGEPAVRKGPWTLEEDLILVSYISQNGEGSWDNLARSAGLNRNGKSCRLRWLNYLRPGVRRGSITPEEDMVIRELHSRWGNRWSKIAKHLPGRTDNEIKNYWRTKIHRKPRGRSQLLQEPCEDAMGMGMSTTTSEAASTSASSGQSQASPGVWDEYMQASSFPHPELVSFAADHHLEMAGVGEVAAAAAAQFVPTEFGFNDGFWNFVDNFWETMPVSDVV
Put plainly: EMSA. Conditions: Beyotime chemiluminescent EMSA kit binding buffer (composition, salt, pH not stated), 20 min, room temperature, 5% native PAGE, 5x and 20x cold competitor, recombinant protein, protein details: N-terminal GST (pGEX-4T1), label: biotin. In general terms: A gel shift assay detects complexes by their altered migration in electrophoresis.

Here are results for 6 sequences from publication PMC10937712, “Natural variation in OsMYB8 confers diurnal floret opening time divergence between indica and japonica subspecies”.

For at least one entry, the source does not settle the construct or the ends of the probe. The comparison behind a weaker result is the experiment's own reference, which may not be listed here. At least one verdict rests on a figure or table, not on a statement of the authors. Where a protein sequence is shown, tags need not be part of it.

As to “AGAGCAGTACTGTAGTTGGGTACGCGGAGCAAGACGATGAGTTAGGCCGG (double strand) [TTAGGC-probe]”, the binding result is listed as “binds”. With “CGGCGCGACGCACACGCACGCAAATTAAATCTTTTCGGACCAACTCCTCC (double strand) [TTTAAT-mprobe]”, the binding result (binding largely abolished) is given as “binds more weakly”. On to “AGAGCAGTACTGTAGTTGGGTACGCGGAGCAAGACGATGAGTTAAACCGG (double strand) [TTAAAC-mprobe]”, for which, for the setting “binding largely abolished”, the binding result is given as “binds more weakly”. Consider “CGGCGCGACGCACACGCACGCAAACCAAATCTTTTCGGACCAACTCCTCC (double strand) [TTTGGT-probe]”, for which the binding result is on record as “binds”. As for “AGTTAAATACGTTTTCTGGAGTTACATGTTTAGCCATTTAAATACGTTTTTTAAATG (double strand) [TTAAAT-mprobe]”, the binding result (binding largely abolished) is on record as “binds more weakly”.

“AGTTAGGTACGTTTTCTGGAGTTACATGTTTAGCCATTTAGGTACGTTTTTTAGGTG (double strand) [TTAGGT-probe]”: the binding result is given as “binds”.
